These are yes or no findings as the source states them, for the method shown. Some binding calls cover weakened binding; strength is not graded here. Where a sequence is shown, tags or fusion partners need not be part of it.

For assay [1], the target named is T1, human BTNL2-His重组蛋白 (ACROBiosystems, BT2-H81Q5) (human) (UniProt Q9UIR0).
T1 sequence (looked up): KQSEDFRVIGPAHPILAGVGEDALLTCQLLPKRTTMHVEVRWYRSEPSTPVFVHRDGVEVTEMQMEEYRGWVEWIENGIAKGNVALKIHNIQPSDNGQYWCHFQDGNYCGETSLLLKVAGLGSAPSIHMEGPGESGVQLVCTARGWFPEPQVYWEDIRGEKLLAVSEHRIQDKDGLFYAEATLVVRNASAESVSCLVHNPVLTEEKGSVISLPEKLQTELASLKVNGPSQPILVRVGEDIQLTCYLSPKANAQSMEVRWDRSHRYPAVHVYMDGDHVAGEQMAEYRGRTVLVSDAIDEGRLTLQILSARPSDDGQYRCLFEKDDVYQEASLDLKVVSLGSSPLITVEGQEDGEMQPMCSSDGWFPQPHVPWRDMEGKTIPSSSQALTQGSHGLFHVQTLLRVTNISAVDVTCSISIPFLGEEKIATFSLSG
The assay is described as follows: ELISA, BTNL2-His coated at 2 μg/mL, antibody from 10 μg/mL in 4-fold dilutions.

Assay [2] has as its target T1, human BTNL2-His重组蛋白 (ACROBiosystems, BT2-H81Q5) (human). The assay is described as follows: ELISA (legend of Figure 1). On the technique in general: An ELISA detects its analyte on a solid surface through an enzyme-linked reagent.

B1: 小鼠抗人BTNL2单克隆抗体 H2T-3-1-28 (antibody, V domains shown)
VH: EVQLQQSGAELVKPGASVKLSCTASGFNIKDTYMHWVKQRPEQGLEWIGRIDPANGNTKYDPKFQGKATITADTSSNTVYLQLSSLTSEDTAVYYCPRYYGNYLYAMDYWGQGTSVTVSS
VL: DIVMTQSQKVMSTSVGDRVSITCKASQNVRSAVAWFQQKPGQSPKVLIYLASNRHTGVPDRFTGSGSGTDFTLTISNVQSEDLADYFCLQHWNYPLTFGAGTKLELK
Consider B1, for which the binding entry in assay [1] and in assay [2] was “binds” throughout.
